Some of the results follow. Further columns of the screen follow, without active or inactive calls. Most of these compounds were active or inconclusive in the main read-out, so they are no random draw. The note in brackets gives the kind of curve behind each potency; many fits are weak.
Assay: qHTS Assay to Find Inhibitors of Chronic Active B-Cell Receptor Signaling
Details: ABC-DLBCL IkBa-CBG/CBR reporter, luminescence ratio (green luciferase fused to IkBa over red control in TMD8 lymphoma cells), 4 h
Summary of the method: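 TMD8 ABC-DLBCL cells carrying doxycycline-inducible green luciferase fused to IkappaBalpha plus unfused red luciferase were exposed to compounds (up to 46 uM) for 4 hrs at 37C. Activity came from the overlap-corrected green/red luminescence ratio.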

[1] = measured here: CBR red luminescence, cell number

Row | SMILES | AC50 [1] | AC50 (measured here: IkBa-CBG green luminescence)
1 | COc1cc(/C=C/C(=O)OCC(=O)c2ccc[nH]2)cc(OC)c1OC | 32.6 µM [rising, partial curve, poor fit] | –
2 | CCCSc1nnc(-c2cnn(-c3ccccc3)c2-n2cccc2)n1C | 0.58 µM [falling, partial curve, poor fit] | –
3 | O=C(Cc1ccc([N+](=O)[O-])cc1)NC1CCCCCC1 | 5.62 µM [falling, single point] | –
4 | Cc1noc(C)c1S(=O)(=O)Nc1ccc2c(c1)C(=O)N([C@H](C)CO)C[C@H](C)[C@@H](CN(C)S(=O)(=O)c1ccccc1)O2 | 4.11 µM [rising, single point] | –
5 | COC(=O)C1=CN(CCCN2CCCC2=O)C=C(C(=O)OC)C1c1ccccc1C(F)(F)F | 0.708 µM [falling, full curve, poor fit] | –
6 | Cc1ccc2c(c1)c1c3n2CCN(C(=O)Cn2c(-c4ccccc4)noc2=O)C3CCC1 (configuration not stated) | 1.12 µM [falling, full curve] | –
7 | COc1ccc(C(=O)NCC(=O)OCC(=O)N2CC(C)OC(C)C2)cc1OC (configuration not stated) | 4.61 µM [falling, partial curve, poor fit] | –
8 | Cc1cc(C)c(OCC(=O)OCC(=O)NCc2cccs2)c(C)c1 | 4.61 µM [rising, partial curve, poor fit] | –
9 | CCCCCCCC(=O)OCC(=O)[C@@]1(O)CC[C@H]2[C@@H]3CCC4=CC(=O)CC[C@]4(C)[C@H]3[C@@H](O)C[C@@]21C | 0.0184 µM [rising, full curve, poor fit] | –
10 | Cc1ccc(C2=NNC(=Nc3ccc(F)cc3)SC2)cc1 | 5.01 µM [falling, single point] | –
11 | CC(C)CC(=O)NC(c1ccccc1)c1c(O)ccc2ccccc12 (configuration not stated) | 35.5 µM [falling, single point] | –
12 | COc1cccc(/C=N/NC(=O)c2ccc(CN3c4cccc5cccc(c45)S3(=O)=O)cc2)c1 | 13 µM [rising, partial curve, poor fit] | 25.9 µM [falling, single point]
13 | O=C(Nc1ncc2c(n1)-c1ccccc1CC2)c1ccccc1 | 12.6 µM [falling, partial curve, poor fit] | –
14 | O=C(O)c1cccc(N=NN2CCCCCC2)c1 | 9.2 µM [falling, partial curve] | –
15 | CCOc1cccc(C(=O)NC(=S)Nc2ccc(N3CCCC3)cc2)c1 | 2.59 µM [falling, full curve, poor fit] | –
16 | CC(=O)Nc1ccc(N2CCN(Cc3ccccc3F)CC2)cc1 | 0.0651 µM [rising, full curve, poor fit] | –

As entered above:
For AC50 [1], `COc1cccc(/C=N/NC(=O)c2ccc(CN3c4cccc5cccc(c45)S3(=O)=O)cc2)c1` has 13 µM [rising, partial curve, poor fit]
For AC50 [1], `CCCSc1nnc(-c2cnn(-c3ccccc3)c2-n2cccc2)n1C` has 0.58 µM [falling, partial curve, poor fit]
